This data set is classed as in vitro ADME, SD rats. The settings on record: SD rat liver microsomes. The protocol: The incubation was terminated at different time points by adding 0.5 mL of ice-cold CH3CN. A parallel incubation was performed in the absence of a NADPH-regenerating system with microsomes as the negative control, and the reactions were terminated after the corresponding time incubation. After centrifugation with 12,500 rpm at 4 °C for 10 min, the supernatant was directly analyzed by the HPLC UV systems (Agilent HPLC 1200 instrument). Three independent experiments were performed in triplicate.
(In general: Liver microsomes are vesicles of endoplasmic reticulum, rich in cytochrome P450 enzymes.)

As to `COc1cc2c(cc1OC)C(=O)C(CC1CCN(Cc3ccccc3)CC1)C2` (stereo not shown) [Donepezil, reference compound], the K was 0.00834 ± 0.00044 min⁻¹.
